From the supplement of paper PMC10338343
± gives the standard deviation. The list shows a part of the results, in another mix than the full data. The uncertainty is large for many entries.

Test system: MILI (PIWIL2) piRISC loaded with L1MC piRNA (26 nt)
Assay: pre-steady-state target cleavage rate (min^-1); MIWI and MILI are mouse PIWI proteins and EfPiwi is from a freshwater sponge; tags in brackets are library labels; higher = faster piRNA-guided slicing of the target
Details: guide: L1MC piRNA 5'p-UAACUAAAUACUAUGCAAGCUGUAGG; auxiliary factor: 500 nM mouse GTSF1
Procedure: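 Cleave-'n-Seq: a library of target RNAs (target site embedded in constant flanks, ACAGCATTCCGCGTTAGTGATATCCG... 5' flank; DNA-blocked outside the site) at 0.1 nM was incubated with 1 nM active mouse MILI or MIWI piRISC (synthetic 5'-monophosphorylated piRNA guide) with or without 500 nM mouse GTSF1 at 33 °C for 1 min to 16 h. Uncleaved targets were sequenced and normalised to non-target controls, and the pooled three trials were fitted to a burst-and-steady-state model to give the pre-steady-state cleavage rate (min^-1; k3 is constrained to at most 1e-4). Sequence is the target site only; target names encode pairing extent (gX:gY) and contiguous / 1-mismatch / 2-mismatch / bulge geometry. Fits with R² ≤ 0 are excluded.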

Row | Sequence | pre-steady-state target cleavage rate
1 | UCCUGGAUGAGCUUGCGAUAGUAUUUAGUUA | 0.00167 ± 0.0057
2 | UCCUGGUACAGCAACCAUAGUAUUUAGUAA | 0.313 ± 0.064
3 | UCCUCCUACAGCUUGCAUACAUUUUAGUAA | 0.00322 ± 0.0047
4 | UCCUGGAACUGCUUGCAUAGUAAUUAGUUA | 0.159 ± 0.012
5 | UCCUGGAUGUCGAUGCAUAGUAUUAUAGUUA | 0.123 ± 0.021
6 | UCCUGGAUGUCCUUGCAUAGUUUAUAGUUA | 0.0111 ± 0.006
7 | UCCUGGUACAGCUUGCAUAGUAAUUAGUUA | 0.317 ± 0.034
8 | UCCUGGAUCAGCUUCCAUAGUAUUUACUUA | 0.00216 ± 0.0049
9 | UCCUGGAUCAGCUUGCUAUGUAUUUAGAAA | 0.00524 ± 0.0033
10 | UCCUGGAUGAGCUUCGUUAGUAUUUAGUAA | 0.000575 ± 0.013
11 | UCCUCCUACAGCUUCCAUAGUAUUUACUUA | 0.0137 ± 0.0064
12 | UCCUGGAUGUCGUAGCAUACUAUUUAGUUA | 0.00267 ± 0.004
13 | UCCUGGAAGAGCUAGCAUAGUAUUUAGUUA | 0.212 ± 0.016
14 | UCCUGGAUGUGCUUGCAUACUUUUUAGUUA | 0.00203 ± 0.0082

Same assay, conditions: guide: L1MC piRNA 5'p-UAACUAAAUACUAUGCAAGCUGUAGG; auxiliary factor: none (no GTSF1)

Row | Sequence | pre-steady-state target cleavage rate
15 | UCCUGGAUGUCGUAGCUUAGUAUUUAGUUA | 0.00112 ± 0.0058
16 | UCCUGGAUGAGCUUGCGAUAGUAUUUAGUUA | 0.000219 ± 0.013
17 | UCCUGGAUGAGCUUGCAUAGUAAUUUGUUA | 0.00184 ± 0.0045
18 | UCCUGCUUCAGCUUGCAUAGUAUUUAGAAA | 0.00138 ± 0.0041
19 | UCCUCCUACAGCUUGCAUACAUUUUAGUAA | 0.000927 ± 0.0056
20 | UCCUGGAUCAGGUUCCAUAGUAUUUAGUUA | 0.000437 ± 0.0096
21 | UCCUGGAUGUCGUUGCAUAGUAUUUAUUUA | 0.00216 ± 0.0043
22 | UCCUGGAACUGCUUGCAUAGUAAUUAGUUA | 0.00625 ± 0.0021
23 | UCCUGGAUGUCGAUGCAUAGUAUUAUAGUUA | 0.00538 ± 0.0026
24 | UCCUGGAUCAGCUUGCAUAGUAUAUAGUAA | 0.00237 ± 0.0033
25 | UCCUGGAUGUCCUUGCAUAGUUUAUAGUUA | 0.00247 ± 0.0026
26 | UCCUGGAUGUCGAACCAUUGUAUUAAGUUA | 0.000255 ± 0.015
27 | UCCUCCUACAGCUUCCAUAGUAUAUAGUUA | 0.000726 ± 0.0073
28 | UCCUGGAUCAGCUUCCAUAGUAUUUACUUA | 0.000345 ± 0.018
29 | UCCUGGAUGUGCUUGCAUAGUUAAUAGUUA | 0.00221 ± 0.0034
30 | UCCUGGAUGUCGUUGCAUAGUUUUUAGUAA | 0.0021 ± 0.0038
31 | UCCUGGAUCAGCUUGCUAUGUAUUUAGAAA | 0.00134 ± 0.0044
32 | UCCUGGAUGAGCUUCGUUAGUAUUUAGUAA | 0.00034 ± 0.014
33 | UCCUCCUACAGCUUCCAUAGUAUUUACUUA | 0.000176 ± 0.015
34 | UCCUGGAUGUCGUUGACAUAGUAUUUAGUUA | 0.000292 ± 0.012
35 | UCCUGGAUGUCGUAGCAUACUAUUUAGUUA | 0.000348 ± 0.017
36 | UCCUGGAAGAGCUAGCAUAGUAUUUAGUUA | 0.00677 ± 0.0024
37 | UCCUGCUACAGCUUGCAAUGUAUUUAGAAA | 0.00118 ± 0.0052
38 | UCCUGGAUGUGCUUGCAUACUUUUUAGUUA | 0.0037 ± 0.0027
39 | UCCUGGAUGUCGUUGCAUAGCAUUUAGUUA | 0.00159 ± 0.0057
